Source: PubChem BioAssay AID1654 (Sanford-Burnham Center for Chemical Genomics, 2009)
The other results are listed elsewhere or left out. Further columns of the screen follow, without active or inactive calls.

The chains behind the UniProt entries cited, without tags or fusion partners. Where a name states a change or a piece, a line headed by the entry shows the natural chain unless it says otherwise.
UniProt P51452: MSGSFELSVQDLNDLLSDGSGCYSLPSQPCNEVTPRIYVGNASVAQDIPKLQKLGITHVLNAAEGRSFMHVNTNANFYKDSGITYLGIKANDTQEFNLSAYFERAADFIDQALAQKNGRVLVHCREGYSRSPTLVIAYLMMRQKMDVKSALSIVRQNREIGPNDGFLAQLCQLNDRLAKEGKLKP

target: Dual specificity protein phosphatase 3 (Homo sapiens) (UniProt P51452); assay: VHR1 phosphatase inhibitors, primary screen, biochemical, absorbance, uHTS (AID 1654); details: recombinant VHR phosphatase, pNPP absorbance; measured here: average of confirmation repeats; at 13.3 µM; stronger effect = higher value

Row | Structure (SMILES) | inhibition
1 | Cc1ccc(NC(=O)Cn2c(O)c(N=NC(=O)c3cc([N+](=O)[O-])ccc3O)c3ccccc32)cc1 | 87.4%
2 | Cc1cc(C)n(Cc2ccc(C(=O)N/N=C/c3ccc(-c4ccc([N+](=O)[O-])cc4)o3)o2)n1 | 65%
3 | NS(=O)(=O)c1cc(C(=O)NC2CCSc3ccccc32)ccc1Cl (configuration not stated) | 108%
4 | CN1CCN(C(=O)c2sc(=S)n(-c3ccccc3)c2N)CC1 | 66.2%
5 | O=C(O)c1cccc(-c2ccc(/C=c3/sc4nc5ccccc5n4c3=O)o2)c1 | 79.9%
6 | Cc1c(CCC(=O)O)c(=O)oc2c(C)c3occ(-c4ccc(Br)cc4)c3cc12 | 84.9%
7 | COc1cc(/C=C2\SC(=O)N(c3cccc(Cl)c3)C2=O)cc([N+](=O)[O-])c1O | 94.8%
8 | COc1ccc(NC(=S)N(CCC(C)C)C2CCN(C(C)C)CC2)cc1Cl | 83.6%
9 | NC(=O)C1(N2CCCCC2)CCN(C(=S)Nc2ccc(S(N)(=O)=O)cc2)CC1 | 81.1%
10 | Cc1snc2sc(C(=O)c3ccc(F)cc3)c(N)c12 | 116%
11 | O=C(O)C1CCC(N2C(=O)c3c(Cl)c(Cl)c(Cl)c(Cl)c3C2=O)CC1 (configuration not stated) | 89.8%
12 | COC(=O)c1ccc(=O)c2nc3/c(=C/O)c(O)cc(=O)c3[nH]c12 | 83.6%
13 | S=C(NCCCN1CCOCC1)NCCCN1CCOCC1 | 77.4%
14 | Cc1cc2nc(-c3ccc(SCc4ccc(C(=O)O)cc4)nc3)[nH]c2cc1C | 73.7%
15 | COc1cccc(/C=N/NC(=O)c2cc3cc([N+](=O)[O-])ccc3s2)c1O | 104%
16 | O=S(=O)(O)c1cccc2c(N=Nc3ccc(O)c4ncccc34)cccc12 | 92.3%
17 | Cc1c(CCC(=O)O)c(=O)oc2c(C)c(OCc3cc4c(cc3Cl)OCO4)ccc12 | 67.5%
18 | Cc1ccccc1N1C(=O)/C(=C/c2ccco2)C(=O)NC1=S | 99.8%
19 | Cc1ccc(-c2nc(NC(=O)CSc3cc(C)c4ccccc4n3)ns2)cc1 | 52.6%
20 | Cc1ccc(/C=C/c2nc3sc(C(=O)O)c(C)c3c(=O)[nH]2)cc1[N+](=O)[O-] | 94.8%
21 | O=C(N/N=C/c1ccccc1Cl)c1nc2ccc([N+](=O)[O-])cc2c(=O)[nH]1 | 116%
22 | Cc1c(N=Nc2c(-c3ccc([N+](=O)[O-])cc3)[nH]n(C(N)=S)c2=O)cccc1[N+](=O)[O-] | 82.4%
23 | S=C(NCCc1ccccc1)Nc1c(Cl)cccc1Cl | 87.4%
24 | COc1cc(/C=C2\SC(=O)N(CC(=O)Nc3ccc(C)cc3)C2=O)cc(Cl)c1OCC(=O)O | 108%

Row | Structure (SMILES) | inhibition
25 | O=C(O)CCN1C(=O)/C(=C2\C(=O)N(Cc3ccccc3Cl)c3ccccc32)SC1=S | 115%
26 | O=C(CN1C(=O)/C(=C2\SC(=S)N(CCS(=O)(=O)O)C2=O)c2ccccc21)Nc1cccc(Br)c1 | 110%
27 | CN1C(=O)/C(=C2\SC(=S)N(CCCCCC(=O)O)C2=O)c2ccccc21 | 101%
28 | COC(=O)c1sc(NC(=O)c2cc(-c3ccccc3)nc3ccccc23)c(C#N)c1C | 72.4%
29 | COc1ccc(NC(=O)c2cc3c(COC(C)=O)cnc(C)c3oc2=Nc2cccc(C(=O)O)c2)c(OC)c1 | 101%
30 | Cc1ccc(NC(=O)CN2C(=O)S/C(=C\c3cccn3-c3cccc(C(=O)O)c3)C2=O)c(C)c1 | 98.5%
31 | CCC(=S)/C=C1\Sc2ccccc2N1CCCS(=O)(=O)O | 50.1%
32 | CCOC(=O)c1sc2nc3c(SCCC(=O)O)cc(C(=O)c4cc(OC)ccc4O)cn3c(=O)c2c1C | 106%
33 | Cn1nc(-c2ccccn2)nc2c(=O)n(C)c(=O)nc1-2 | 101%
34 | O=C(O)c1cc(-c2ccc(/C=c3\sc4nc5ccc(Br)cc5n4c3=O)o2)ccc1Cl | 114%
35 | COc1cc(/C=C2\SC(=O)N(c3ccc(Cl)cc3)C2=O)cc([N+](=O)[O-])c1O | 83.6%
36 | O=C(N/N=C/c1cn(Cc2cccc(F)c2)c2ccccc12)c1cc(O)cc(O)c1 | 107%
37 | Cc1ccc(NC(=O)CN2C(=O)S/C(=C\c3cccn3-c3cccc(C(=O)O)c3)C2=O)cc1C | 51.3%
38 | Cc1ccc(-n2c(=O)c3cc4c(=O)n(-c5ccc(C)c(C)c5)c(=O)c4c(C(=O)c4ccc(C(=O)O)cc4)c3c2=O)cc1C | 105%
39 | CCOc1cc(/C=N/N=C2/NC(=O)C(CC(=O)O)S2)ccc1OCc1ccc(Cl)cc1Cl (configuration not stated) | 50.1%
40 | COc1cc(/C=C2\SC(=O)N(Cc3ccc(Cl)cc3)C2=O)cc([N+](=O)[O-])c1O | 66.2%
41 | CCCc1nc2c(=O)n(C)c(=O)nc-2n(C)n1 | 97.3%
42 | O=C1NC(=S)N(c2ccc(F)cc2)C(=O)/C1=C/c1ccco1 | 88.6%
43 | COc1ccc(N=C2S/C(=C\c3ccc(OCC(=O)O)cc3)C(=O)N2CCc2c[nH]c3ccccc23)cc1 | 121%
44 | CS(=O)(=O)c1ccc2c(c1)sc1nc(=O)c(/C=C3/C=CC(=O)C(O)=C3)c(N)n12 | 86.1%
45 | O=C(O)c1cccc(-n2cccc2/C=C2/NC(=O)N(c3ccc(Cl)cc3)C2=O)c1 | 101%
46 | CN1CCN(C(=S)C(=O)Nc2ccc(Br)cc2)CC1 | 60%
47 | COc1ccc(OC)c(N2C(=O)/C(=C/c3ccco3)C(=O)NC2=S)c1 | 98.5%
48 | Cn1ncnc2c(=O)n(C)c(=O)nc1-2 | 122%

Row | Structure (SMILES) | inhibition
49 | COc1cc(C(=S)N2CCCCC2)ccc1O | 84.9%
50 | O=c1c(O)cccc2cc(O)c(O)c(O)c12 | 108%
51 | CSc1nc(SCC(=O)O)c2sc3nc(-c4ccccc4)c4c(c3c2n1)CCC4 | 106%
52 | CCOC(=O)c1sc2nc3c(SCC(=O)O)cc(C(=O)c4ccccc4O)cn3c(=O)c2c1C | 108%
53 | Cc1ccc(-n2c(N)c(C(=O)N3CCN(C)CC3)sc2=S)cc1 | 53.8%
54 | COc1ccc(-n2cccc2/C=C2\C(=N)N3N=C(c4ccco4)SC3=NC2=O)cc1 | 56.3%
55 | O=C(CSc1nc(-c2ccc(F)cc2)nc2c1Cc1ccccc1O2)Nc1ccc(C(=O)O)cc1 | 55%
56 | CCn1nc(/C=C/c2ccccc2)nc2c(=O)n(C)c(=O)nc1-2 | 107%
57 | Oc1c(Br)cc(/C=N/n2c(-c3ccccc3)n[nH]c2=S)c(Br)c1O | 102%
58 | O=C(O)COc1ccc(/C=N/NC(=O)c2ccc(-c3csc(Nc4ccc(Cl)cc4)n3)cc2)cc1 | 106%
59 | CCOC(=O)C1=C(C)N=c2s/c(=C\c3ccc(OCC(=O)O)cc3)c(=O)n2C1c1ccc(Cl)cc1 (configuration not stated) | 97.3%
60 | CCOC(=O)C1=C(C)N=c2s/c(=C/c3ccc(OCC(=O)O)cc3)c(=O)n2C1c1ccc(SC)cc1 (configuration not stated) | 51.3%
61 | O=C(Nc1ccc(Cl)c(Cl)c1)Nc1nnc(-c2ccncc2)s1 | 61.3%
62 | O=C(O)c1ccc(-c2ccc(/C=c3/sc4nc5ccccc5n4c3=O)o2)cc1Cl | 101%
63 | NS(=O)(=O)c1ccc(NC(=S)NC2CCCCC2)cc1 | 91.1%
64 | COC(=O)Nc1sc2c(c1C(N)=O)CCC(C)C2 (configuration not stated) | 84.9%
65 | S=C(c1cn(CCOc2ccccc2)c2ccccc12)N1CCCC1 | 89.8%
66 | O=C(CSc1nnc(SCc2ccc(Cl)cc2)s1)N/N=C/c1c[nH]c2ccccc12 | 104%
67 | O=C(O)CSc1cc(C(=O)c2ccccc2O)cn2c(=O)c3c4c(sc3nc12)CCCC4 | 96.1%
68 | Cc1cc(=O)oc2cc(OCC(=O)N/N=C/c3cc([N+](=O)[O-])ccc3O)ccc12 | 56.3%
69 | O=C(c1cccs1)c1no[n+]([O-])c1C(=O)c1cccs1 | 94.8%
70 | O=c1oc2c(O)c(O)cc3c(=O)oc4c(O)c(O)cc1c4c23 | 114%
71 | CCc1ccc(N=C2NC(=O)/C(=C/c3cc(Br)c(OCC(=O)O)c(OC)c3)S2)cc1 | 88.6%
72 | O=C(O)c1ccc(NC(=S)NC(=O)c2ccc(-c3ccc(Br)cc3)o2)cc1 | 106%

4 entries already listed, sorted by heavy-atom count, high to low.
Row | Structure (SMILES) | inhibition
39 | CCOc1cc(/C=N/N=C2/NC(=O)C(CC(=O)O)S2)ccc1OCc1ccc(Cl)cc1Cl (configuration not stated) | 50.1%
35 | COc1cc(/C=C2\SC(=O)N(c3ccc(Cl)cc3)C2=O)cc([N+](=O)[O-])c1O | 83.6%
53 | Cc1ccc(-n2c(N)c(C(=O)N3CCN(C)CC3)sc2=S)cc1 | 53.8%
10 | Cc1snc2sc(C(=O)c3ccc(F)cc3)c(N)c12 | 116%
